From the supplement of paper PMC10849652
Some of the results follow.

Sequences of proteins named here, by UniProt entry; tags and fusion partners are left off. A change or cut given only in a name is not applied to a line headed by its entry.
UniProt Q96BW9: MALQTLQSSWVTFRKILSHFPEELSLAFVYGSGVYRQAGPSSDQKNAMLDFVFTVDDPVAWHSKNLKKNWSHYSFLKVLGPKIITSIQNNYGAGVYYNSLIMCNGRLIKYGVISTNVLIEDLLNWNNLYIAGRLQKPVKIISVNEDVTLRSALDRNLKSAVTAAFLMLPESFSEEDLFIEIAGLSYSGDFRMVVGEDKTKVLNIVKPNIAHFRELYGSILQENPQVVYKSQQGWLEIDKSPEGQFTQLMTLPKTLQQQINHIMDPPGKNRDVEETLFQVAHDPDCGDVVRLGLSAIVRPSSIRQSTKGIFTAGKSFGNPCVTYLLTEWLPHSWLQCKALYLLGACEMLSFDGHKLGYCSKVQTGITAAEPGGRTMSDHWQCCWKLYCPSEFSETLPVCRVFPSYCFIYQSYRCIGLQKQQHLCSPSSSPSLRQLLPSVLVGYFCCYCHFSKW
UniProt Q8TCJ2: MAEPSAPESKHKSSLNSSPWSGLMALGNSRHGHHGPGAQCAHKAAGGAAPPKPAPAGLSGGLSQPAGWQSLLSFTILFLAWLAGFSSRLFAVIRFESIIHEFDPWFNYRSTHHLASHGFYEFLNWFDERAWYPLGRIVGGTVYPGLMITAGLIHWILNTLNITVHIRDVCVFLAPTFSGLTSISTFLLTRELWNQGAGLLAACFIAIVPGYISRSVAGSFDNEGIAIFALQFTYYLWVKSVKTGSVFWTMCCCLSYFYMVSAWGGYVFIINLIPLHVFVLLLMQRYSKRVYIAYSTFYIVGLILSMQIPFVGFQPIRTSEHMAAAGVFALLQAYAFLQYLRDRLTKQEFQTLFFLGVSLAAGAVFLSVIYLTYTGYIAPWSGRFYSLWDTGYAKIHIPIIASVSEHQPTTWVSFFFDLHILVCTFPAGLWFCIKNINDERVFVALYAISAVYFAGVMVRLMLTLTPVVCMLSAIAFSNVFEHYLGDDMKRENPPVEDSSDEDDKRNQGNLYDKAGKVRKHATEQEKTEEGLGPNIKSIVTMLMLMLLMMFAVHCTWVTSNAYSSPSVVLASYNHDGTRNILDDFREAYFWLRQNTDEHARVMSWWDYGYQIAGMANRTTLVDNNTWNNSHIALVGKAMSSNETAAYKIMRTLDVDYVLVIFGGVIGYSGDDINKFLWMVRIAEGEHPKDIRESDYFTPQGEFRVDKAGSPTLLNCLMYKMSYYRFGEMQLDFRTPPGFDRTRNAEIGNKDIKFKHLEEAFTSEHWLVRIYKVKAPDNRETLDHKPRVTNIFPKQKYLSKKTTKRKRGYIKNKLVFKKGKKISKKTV
UniProt Q16514: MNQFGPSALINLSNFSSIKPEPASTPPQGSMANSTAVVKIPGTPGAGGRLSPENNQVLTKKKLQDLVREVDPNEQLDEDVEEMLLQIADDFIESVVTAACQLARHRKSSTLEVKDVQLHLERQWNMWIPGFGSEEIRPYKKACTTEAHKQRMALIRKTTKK
UniProt O95926: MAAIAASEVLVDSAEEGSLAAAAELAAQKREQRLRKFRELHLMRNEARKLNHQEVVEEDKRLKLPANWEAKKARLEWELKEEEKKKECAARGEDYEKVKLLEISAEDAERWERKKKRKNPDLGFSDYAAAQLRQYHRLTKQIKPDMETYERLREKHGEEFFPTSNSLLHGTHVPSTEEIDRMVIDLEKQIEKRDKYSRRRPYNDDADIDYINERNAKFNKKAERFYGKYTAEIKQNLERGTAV
UniProt Q9NZ72: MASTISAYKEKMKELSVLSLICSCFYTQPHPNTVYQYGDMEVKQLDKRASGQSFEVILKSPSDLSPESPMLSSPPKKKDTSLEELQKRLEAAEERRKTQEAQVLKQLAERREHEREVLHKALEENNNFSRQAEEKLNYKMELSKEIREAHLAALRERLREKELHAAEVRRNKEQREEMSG
UniProt Q13188: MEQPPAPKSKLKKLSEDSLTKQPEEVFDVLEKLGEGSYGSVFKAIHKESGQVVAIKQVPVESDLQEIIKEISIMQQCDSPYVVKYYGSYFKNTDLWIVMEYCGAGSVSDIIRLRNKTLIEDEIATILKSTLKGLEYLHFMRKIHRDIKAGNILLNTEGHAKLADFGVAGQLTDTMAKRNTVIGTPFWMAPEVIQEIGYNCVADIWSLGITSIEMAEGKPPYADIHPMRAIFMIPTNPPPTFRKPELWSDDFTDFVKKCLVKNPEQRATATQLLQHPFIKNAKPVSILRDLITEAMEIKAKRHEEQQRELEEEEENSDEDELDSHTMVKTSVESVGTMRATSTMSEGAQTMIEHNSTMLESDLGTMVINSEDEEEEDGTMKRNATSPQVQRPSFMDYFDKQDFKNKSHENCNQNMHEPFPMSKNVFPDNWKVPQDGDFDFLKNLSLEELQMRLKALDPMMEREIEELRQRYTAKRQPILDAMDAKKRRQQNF
UniProt Q16563: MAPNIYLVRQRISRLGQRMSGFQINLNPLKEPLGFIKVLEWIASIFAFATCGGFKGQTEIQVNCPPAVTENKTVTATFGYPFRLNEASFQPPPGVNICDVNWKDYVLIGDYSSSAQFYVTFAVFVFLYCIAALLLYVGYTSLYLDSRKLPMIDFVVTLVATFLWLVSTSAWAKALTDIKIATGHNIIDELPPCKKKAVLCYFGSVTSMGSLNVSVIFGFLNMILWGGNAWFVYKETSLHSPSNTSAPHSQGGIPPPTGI
UniProt Q9H2K8: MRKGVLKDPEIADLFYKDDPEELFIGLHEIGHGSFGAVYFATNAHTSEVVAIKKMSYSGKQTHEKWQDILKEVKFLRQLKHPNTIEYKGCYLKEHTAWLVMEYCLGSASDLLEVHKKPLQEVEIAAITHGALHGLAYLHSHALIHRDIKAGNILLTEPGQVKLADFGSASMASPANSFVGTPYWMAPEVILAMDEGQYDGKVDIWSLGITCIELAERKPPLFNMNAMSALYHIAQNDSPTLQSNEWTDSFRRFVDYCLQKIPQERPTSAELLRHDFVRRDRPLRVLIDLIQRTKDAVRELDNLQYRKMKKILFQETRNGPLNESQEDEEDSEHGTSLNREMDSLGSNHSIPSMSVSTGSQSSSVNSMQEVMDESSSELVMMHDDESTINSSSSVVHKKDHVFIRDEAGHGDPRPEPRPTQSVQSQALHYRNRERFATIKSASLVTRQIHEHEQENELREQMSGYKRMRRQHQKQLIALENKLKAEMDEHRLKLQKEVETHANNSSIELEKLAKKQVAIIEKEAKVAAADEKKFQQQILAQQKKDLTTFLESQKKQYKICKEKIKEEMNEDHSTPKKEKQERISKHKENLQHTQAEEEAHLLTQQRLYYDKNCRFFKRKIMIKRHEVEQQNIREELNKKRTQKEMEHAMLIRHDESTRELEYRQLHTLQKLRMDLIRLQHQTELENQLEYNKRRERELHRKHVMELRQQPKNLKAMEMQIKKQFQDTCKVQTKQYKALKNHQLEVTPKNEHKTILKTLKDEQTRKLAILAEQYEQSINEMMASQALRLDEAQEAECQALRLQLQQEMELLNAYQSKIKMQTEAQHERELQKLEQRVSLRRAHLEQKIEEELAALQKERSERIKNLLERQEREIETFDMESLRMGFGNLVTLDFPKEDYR
UniProt P50225: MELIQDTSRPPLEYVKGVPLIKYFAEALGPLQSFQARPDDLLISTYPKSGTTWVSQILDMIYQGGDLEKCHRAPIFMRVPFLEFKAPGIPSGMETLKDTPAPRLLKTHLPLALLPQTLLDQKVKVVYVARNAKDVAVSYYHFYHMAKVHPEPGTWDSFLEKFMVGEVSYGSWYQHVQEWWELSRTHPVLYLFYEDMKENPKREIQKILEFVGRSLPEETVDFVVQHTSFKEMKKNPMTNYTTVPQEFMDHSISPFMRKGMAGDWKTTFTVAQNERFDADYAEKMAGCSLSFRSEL
UniProt Q6UWL2: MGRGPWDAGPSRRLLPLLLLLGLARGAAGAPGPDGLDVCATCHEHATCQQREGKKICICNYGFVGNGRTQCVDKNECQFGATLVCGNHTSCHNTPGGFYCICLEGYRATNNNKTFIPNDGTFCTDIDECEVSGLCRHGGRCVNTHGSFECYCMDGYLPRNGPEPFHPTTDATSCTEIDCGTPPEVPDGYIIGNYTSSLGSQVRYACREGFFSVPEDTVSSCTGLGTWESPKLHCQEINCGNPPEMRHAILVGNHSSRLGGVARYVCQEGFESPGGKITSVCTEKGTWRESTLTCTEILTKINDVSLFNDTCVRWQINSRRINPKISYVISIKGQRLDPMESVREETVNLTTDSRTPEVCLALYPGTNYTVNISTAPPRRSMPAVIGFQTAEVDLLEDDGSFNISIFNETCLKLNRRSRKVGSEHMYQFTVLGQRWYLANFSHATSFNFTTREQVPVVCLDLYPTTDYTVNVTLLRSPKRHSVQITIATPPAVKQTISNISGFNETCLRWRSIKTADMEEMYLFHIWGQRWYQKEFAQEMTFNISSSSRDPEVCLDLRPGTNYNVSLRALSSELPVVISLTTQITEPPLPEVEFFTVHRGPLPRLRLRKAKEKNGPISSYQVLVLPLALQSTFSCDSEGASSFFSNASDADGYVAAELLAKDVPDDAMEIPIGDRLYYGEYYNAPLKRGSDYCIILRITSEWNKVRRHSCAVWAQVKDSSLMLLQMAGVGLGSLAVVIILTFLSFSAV
UniProt Q9UNE7: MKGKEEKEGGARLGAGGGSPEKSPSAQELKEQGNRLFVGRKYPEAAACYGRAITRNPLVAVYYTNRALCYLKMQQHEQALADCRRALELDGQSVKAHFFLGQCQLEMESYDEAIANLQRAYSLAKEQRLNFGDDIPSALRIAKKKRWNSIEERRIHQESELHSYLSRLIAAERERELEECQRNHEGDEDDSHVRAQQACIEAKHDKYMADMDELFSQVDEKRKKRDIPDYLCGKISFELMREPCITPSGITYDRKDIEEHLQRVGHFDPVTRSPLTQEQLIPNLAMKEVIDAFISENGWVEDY
UniProt O15533, whole entry, looked up: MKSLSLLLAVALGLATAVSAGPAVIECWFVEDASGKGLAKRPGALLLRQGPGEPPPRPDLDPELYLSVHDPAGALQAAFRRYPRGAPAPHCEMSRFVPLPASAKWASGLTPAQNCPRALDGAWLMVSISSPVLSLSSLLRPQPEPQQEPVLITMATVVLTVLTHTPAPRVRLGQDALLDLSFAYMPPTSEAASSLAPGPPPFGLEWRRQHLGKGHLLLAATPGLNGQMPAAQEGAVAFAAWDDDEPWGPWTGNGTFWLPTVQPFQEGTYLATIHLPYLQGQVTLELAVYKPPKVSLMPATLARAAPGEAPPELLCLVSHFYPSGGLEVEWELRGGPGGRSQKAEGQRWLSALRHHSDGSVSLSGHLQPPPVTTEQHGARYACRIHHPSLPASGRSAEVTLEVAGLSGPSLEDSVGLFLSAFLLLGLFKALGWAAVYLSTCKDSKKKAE
UniProt Q8NBK3: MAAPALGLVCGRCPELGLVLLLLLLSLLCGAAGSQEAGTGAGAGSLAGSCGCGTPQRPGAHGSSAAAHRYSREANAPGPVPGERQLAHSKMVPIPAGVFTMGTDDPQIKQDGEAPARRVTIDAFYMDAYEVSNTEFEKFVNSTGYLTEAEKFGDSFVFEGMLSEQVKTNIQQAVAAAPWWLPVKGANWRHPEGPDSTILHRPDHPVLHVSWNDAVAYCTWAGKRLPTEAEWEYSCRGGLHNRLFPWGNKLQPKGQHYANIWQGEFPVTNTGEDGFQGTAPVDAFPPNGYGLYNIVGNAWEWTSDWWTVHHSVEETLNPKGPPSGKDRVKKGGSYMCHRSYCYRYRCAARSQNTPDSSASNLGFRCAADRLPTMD
UniProt P08842: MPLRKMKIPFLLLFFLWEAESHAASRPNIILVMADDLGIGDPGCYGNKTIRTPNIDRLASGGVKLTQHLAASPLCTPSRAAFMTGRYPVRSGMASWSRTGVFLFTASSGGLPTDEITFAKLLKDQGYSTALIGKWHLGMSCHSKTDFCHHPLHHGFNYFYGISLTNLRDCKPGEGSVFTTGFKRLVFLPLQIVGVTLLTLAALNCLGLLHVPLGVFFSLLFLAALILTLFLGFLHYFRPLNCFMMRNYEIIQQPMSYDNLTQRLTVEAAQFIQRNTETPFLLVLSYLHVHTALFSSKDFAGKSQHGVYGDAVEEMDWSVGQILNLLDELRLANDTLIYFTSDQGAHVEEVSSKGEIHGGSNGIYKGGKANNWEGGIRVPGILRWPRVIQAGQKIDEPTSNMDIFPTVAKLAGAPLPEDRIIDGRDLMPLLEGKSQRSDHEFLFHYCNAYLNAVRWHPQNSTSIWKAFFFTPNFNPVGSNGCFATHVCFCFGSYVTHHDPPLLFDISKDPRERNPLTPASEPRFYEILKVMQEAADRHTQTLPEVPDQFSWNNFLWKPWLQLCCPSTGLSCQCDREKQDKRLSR
UniProt Q9H7L9: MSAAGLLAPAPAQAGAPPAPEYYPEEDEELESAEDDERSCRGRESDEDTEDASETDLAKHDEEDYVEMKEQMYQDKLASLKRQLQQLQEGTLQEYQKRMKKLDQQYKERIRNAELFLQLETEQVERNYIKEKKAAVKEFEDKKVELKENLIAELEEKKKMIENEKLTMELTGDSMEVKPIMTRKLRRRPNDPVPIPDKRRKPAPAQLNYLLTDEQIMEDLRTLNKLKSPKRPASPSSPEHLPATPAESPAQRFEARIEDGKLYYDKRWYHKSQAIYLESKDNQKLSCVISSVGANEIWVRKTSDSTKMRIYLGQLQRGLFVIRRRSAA

What was measured:
Experiment in all cases: log2 fold change, soluble protein after heating vs DMSO (PISA); higher = thermal stabilisation; K562 cells, 10 uM, 30 min; active = over 0.2 and 3.5 SD of the protein, either way, in both replicates (recomputed)
bafetinib = compound: Cc1ccc(NC(=O)c2ccc(CN3CC[C@H](N(C)C)C3)c(C(F)(F)F)c2)cc1Nc1nccc(-c2cncnc2)n1 [bafetinib]
Summary of the method: (§1)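 Quantification of soluble protein used TMTpro 16plex LC-MS/MS, with channel sums equalised. Samples were the supernatant after 21,000xg for 90 min of pooled aliquots from K562 cells (2×10^6 cells/mL) treated with 10 μM compound for 30 min, heated for 3 min over 48°C-58°C, and extracted in PBS with 0.5% NP-40 at 4°C. Values, from duplicates, describe thermal stability against control samples on a log2 fold-change scale.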

[1] = compound: Cc1cccc(CC(=O)N2CCc3c2ccc(-c2cn(C)c4ncnc(N)c24)c3F)n1
Summary of the method: as §1

nilotinib = compound: Cc1cn(-c2cc(NC(=O)c3ccc(C)c(Nc4nccc(-c5cccnc5)n4)c3)cc(C(F)(F)F)c2)cn1 [nilotinib]
Summary of the method: as §1

[2] = compound: Cc1nc(Nc2n[nH]c3c2CN(C(=O)N[C@H](CN(C)C)c2ccccc2)C3(C)C)c2sccc2n1
Summary of the method: as §1

dasatinib = compound: Cc1nc(Nc2ncc(C(=O)Nc3c(C)cccc3Cl)s2)cc(N2CCN(CCO)CC2)n1 [dasatinib]
Summary of the method: as §1

[3] = compound: Cc1ncc(-c2ccnc(Nc3ccc(S(C)(=O)=O)cc3)n2)n1C(C)C
Summary of the method: as §1

[4] = compound: Cn1cc(-c2ccc3c(c2)CCN3C(=O)Cc2cccc(C(F)(F)F)c2)c2c(N)ncnc21
Summary of the method: as §1

[5] = compound: Cn1cc(-c2ccc3nnc(C(F)(F)c4ccc5ncccc5c4)n3n2)cn1
Summary of the method: as §1

tipifarnib = compound: Cn1cncc1[C@@](N)(c1ccc(Cl)cc1)c1ccc2c(c1)c(-c1cccc(Cl)c1)cc(=O)n2C [tipifarnib]
Summary of the method: as §1

mubritinib = compound: FC(F)(F)c1ccc(/C=C/c2nc(COc3ccc(CCCCn4ccnn4)cc3)co2)cc1 [mubritinib]
Summary of the method: as §1

Measured: log2 fold change

TAMM41 isoform 3 (UniProt Q96BW9)
inactive: [1] -0.041 | nilotinib -0.112 | [2] -0.005 | dasatinib -0.108 | [3] 0.026 | [4] 0.037 | [5] 0.028 | tipifarnib -0.043 | mubritinib -0.044
active: bafetinib -0.278

SUOX (UniProt P51687)
inactive: bafetinib -0.084 | [1] -0.181 | nilotinib 0.063 | [2] 0.013 | dasatinib 0 | [3] -0.066 | [4] -0.015 | [5] 0.063 | tipifarnib 0.019 | mubritinib 0.032

SVIP (UniProt Q8NHG7)
inactive: bafetinib -0.087 | [1] -0.038 | nilotinib 0.072 | [2] 0.015 | [3] -0.076 | [4] 0.069 | [5] -0.129 | tipifarnib 0.021 | mubritinib 0.036

STT3B (UniProt Q8TCJ2)
inactive: bafetinib -0.02 | [1] 0 | nilotinib 0.022 | [2] 0.021 | dasatinib 0.072 | [3] -0.054 | [4] -0.106 | [5] 0.032 | tipifarnib 0.11 | mubritinib -0.026

SUPT16H (UniProt Q9Y5B9)
inactive: bafetinib 0.006 | [1] 0.049 | nilotinib 0.011 | [2] -0.088 | dasatinib -0.269 | [3] -0.103 | [4] 0.073 | [5] 0.108 | tipifarnib -0.088 | mubritinib 0.047

STK4 (UniProt Q13043)
inactive: bafetinib -0.053 | [1] -0.027 | nilotinib -0.003 | [2] 0.143 | dasatinib -0.052 | [3] -0.016 | [4] 0.005 | [5] 0 | tipifarnib 0.039 | mubritinib -0.028

TAF12 (UniProt Q16514)
inactive: bafetinib 0.008 | [1] -0.018 | nilotinib -0.043 | [2] -0.007 | [3] 0.113 | tipifarnib -0.001 | mubritinib 0.014

TBC1D10B (UniProt Q4KMP7)
inactive: bafetinib -0.01 | [1] 0.022 | nilotinib 0.013 | [2] -0.09 | dasatinib -0.064 | [3] -0.149 | [4] 0.07 | [5] 0 | tipifarnib 0.039 | mubritinib 0.013

STRN4 isoform 3 (UniProt Q9NRL3)
inactive: bafetinib -0.009 | [1] -0.179 | nilotinib -0.009 | [2] 0.114 | dasatinib 0.058 | [3] -0.016 | [4] -0.004 | [5] -0.096 | tipifarnib -0.007 | mubritinib 0.02

SYF2 (UniProt O95926)
inactive: bafetinib -0.198 | [1] 0.021 | nilotinib -0.017 | [2] 0.25 | dasatinib 0.119 | [3] 0.308 | [4] -0.193 | [5] -0.021 | tipifarnib 0.027 | mubritinib -0.002

STXBP5 (UniProt Q5T5C0)
inactive: bafetinib -0.032 | [1] 0.017 | nilotinib 0.003 | [2] -0.025 | dasatinib -0.06 | [3] -0.003 | [4] 0.021 | [5] -0.026 | tipifarnib -0.049 | mubritinib -0.021

STK36 (UniProt Q9NRP7)
inactive: bafetinib -0.122 | [1] -0.065 | nilotinib 0.095 | [2] -0.012 | dasatinib -0.293 | [3] 0.042 | [5] -0.02 | tipifarnib -0.12 | mubritinib 0.269

STMN3 (UniProt Q9NZ72)
inactive: bafetinib -0.024 | [1] -0.042 | nilotinib 0.083 | [2] -0.076 | dasatinib 0.054 | [3] -0.1 | [4] 0.045 | [5] -0.07 | tipifarnib 0.046 | mubritinib 0.034

STK3 isoform 2 (UniProt Q13188)
inactive: bafetinib -0.053 | [1] 0.02 | nilotinib 0.016 | [2] 0.083 | dasatinib -0.044 | [3] -0.021 | [4] -0.012 | [5] 0.008 | tipifarnib 0.008 | mubritinib -0.008

TATDN2 (UniProt Q93075)
inactive: bafetinib 0.088 | [1] -0.151 | nilotinib 0.137 | [2] -0.217 | dasatinib -0.042 | [3] -0.043 | [4] -0.059 | tipifarnib 0.074

SYPL1 (UniProt Q16563)
inactive: bafetinib -0.045 | [1] 0.03 | nilotinib 0.011 | [2] 0.024 | dasatinib 0.035 | [3] -0.013 | [4] 0.059 | [5] -0.025 | tipifarnib 0.015 | mubritinib 0.038

TAOK3 (UniProt Q9H2K8)
inactive: bafetinib -0.066 | [1] 0.012 | nilotinib -0.05 | [2] 0.03 | dasatinib -0.048 | [3] -0.048 | [4] 0.025 | [5] -0.009 | tipifarnib -0.026 | mubritinib 0.018

SULT1A1 (UniProt P50225)
active: [4] 0.333 | [5] 0.353
inactive: bafetinib -0.067 | [1] 0.222 | nilotinib -0.072 | [2] -0.065 | dasatinib -0.172 | [3] -0.002 | tipifarnib -0.097 | mubritinib -0.069

STK38L (UniProt Q9Y2H1)
inactive: bafetinib -0.02 | [1] -0.065 | nilotinib -0.032 | [2] -0.238 | dasatinib -0.012 | [3] -0.03 | [4] -0.122 | [5] -0.582 | mubritinib 0.081

SWI5 (UniProt Q1ZZU3)
inactive: bafetinib 0.057 | [1] 0.021 | nilotinib -0.047 | [2] 0 | dasatinib 0.105 | [3] 0.019 | [4] 0.002 | tipifarnib -0.163

SUSD1 isoform 2 (UniProt Q6UWL2)
inactive: bafetinib -0.068 | [1] 0.031 | nilotinib -0.049 | [2] 0.072 | dasatinib 0.082 | [3] -0.075 | [4] -0.209 | tipifarnib 0.008

SYNJ2BP-COX16, A0A087WYV9
inactive: bafetinib -0.095 | [1] -0.049 | nilotinib 0.037 | [2] 0.069 | dasatinib 0.03 | [3] -0.002 | [4] 0.028 | [5] 0.027 | tipifarnib 0.047 | mubritinib -0.019

STUB1 (UniProt Q9UNE7)
inactive: bafetinib -0.013 | [1] -0.009 | nilotinib -0.043 | [2] -0.021 | dasatinib -0.034 | [3] -0.052 | [4] -0.08 | [5] -0.054 | tipifarnib -0.018 | mubritinib -0.054

SURF6 (UniProt O75683)
inactive: bafetinib 0.081 | [1] -0.033 | nilotinib 0.126 | [2] 0.03 | dasatinib 0.265 | [3] 0.033 | [4] -0.238 | [5] -0.188 | tipifarnib 0.145 | mubritinib -0.072

TAPBP isoform 3 (UniProt O15533)
inactive: bafetinib 0.086 | [1] -0.078 | nilotinib 0 | [2] -0.002 | [3] -0.054 | [4] -0.063 | [5] 0.104 | tipifarnib -0.081 | mubritinib -0.107

TARBP1 (UniProt Q13395)
inactive: bafetinib -0.022 | [1] 0.005 | nilotinib 0.019 | [2] 0.081 | dasatinib -0.058 | [3] -0.026 | [4] 0.116 | [5] -0.013 | tipifarnib 0.036 | mubritinib -0.055

TAB1 (UniProt Q15750)
inactive: bafetinib -0.001 | [1] 0.039 | nilotinib -0.171 | [2] -0.05 | dasatinib -0.182 | [3] 0.124 | [4] -0.011 | [5] 0.052 | tipifarnib -0.117 | mubritinib 0.082

SYNE1 (UniProt Q8NF91)
inactive: bafetinib -0.051 | [1] 0.008 | nilotinib 0.021 | [2] -0.281 | dasatinib -0.074 | [3] -0.074 | [4] 0.079 | [5] -0.098 | mubritinib 0.182

2 entries drawn at random from the list so far, as already listed:
SWI5 (UniProt Q1ZZU3)
inactive: bafetinib 0.057 | [1] 0.021 | nilotinib -0.047 | [2] 0 | dasatinib 0.105 | [3] 0.019 | [4] 0.002 | tipifarnib -0.163

SULT1A1 (UniProt P50225)
active: [4] 0.333 | [5] 0.353
inactive: bafetinib -0.067 | [1] 0.222 | nilotinib -0.072 | [2] -0.065 | dasatinib -0.172 | [3] -0.002 | tipifarnib -0.097 | mubritinib -0.069

Following part.

SUMF1 isoform 3 (UniProt Q8NBK3)
inactive: [1] -0.032 | nilotinib 0.16 | [2] 0 | dasatinib -0.049 | [3] 0.021 | [5] 0.04 | tipifarnib -0.059 | mubritinib -0.075

STS (UniProt P08842)
inactive: bafetinib -0.035 | tipifarnib 0.039

SUDS3 (UniProt Q9H7L9)
inactive: bafetinib 0.126 | nilotinib -0.071 | [2] 0.073 | dasatinib -0.027 | [3] 0.009 | [4] -0.011 | [5] 0.126 | mubritinib 0.032
